Laboratory results reported in article PMC7819943, “Rice protein-binding microarrays: a tool to detect cis-acting elements near promoter regions in rice”.
Some of the results follow.

By UniProt entry, the sequences of proteins in these tests, tags left out.
UniProt Q0JBA9, entry or part of it: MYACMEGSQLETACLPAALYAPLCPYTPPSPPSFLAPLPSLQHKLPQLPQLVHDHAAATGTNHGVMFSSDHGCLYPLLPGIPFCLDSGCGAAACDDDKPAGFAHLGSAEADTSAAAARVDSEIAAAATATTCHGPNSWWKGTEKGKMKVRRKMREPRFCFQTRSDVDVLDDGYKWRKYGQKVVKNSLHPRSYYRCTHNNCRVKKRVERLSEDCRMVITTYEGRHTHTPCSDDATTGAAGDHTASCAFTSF

Target: OsWRKY34 (Oryza sativa, UniProt Q0JBA9 1-250)
Experiment: protein-binding microarray (RPBM); PBS, 2% BSA, 51.3 ng/ul salmon testes DNA, 50 uM zinc acetate, 200 nM TF, 25 C, 1 h; high values mean tight binding
Conditions: protein: recombinant; tags: N-terminal polyhistidine and DsRed monomer fusion (pET32a); label: CyDye5-dUTP incorporated in the synthesized complementary strand; 3' TTTTT single-stranded linker to array surface; dsDNA, one strand shown
Outline: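 For the binding signal, per-feature fluorescence intensity was read in arbitrary units on an Axon 4000B scanner. Before scanning, a 2% BSA-blocked custom Agilent array made double-stranded with Cy5-dUTP was washed after 1 h at 25 °C with 200 nM protein and 50 µM zinc acetate. The proteins were Ni–NTA-purified transcription factors with N-terminal polyhistidine and DsRed fusions, expressed in E. coli BL21-CodonPlus.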

**Q.** “TGCACCTAGGTGTACATGTCATTGTGTGTTTGTGGTTGGTCGGAGTCACCTAGTGCAG” was tested. Which binding signal did it give?
**A.** 8200 fluorescence intensity (a.u.)

**Q.** How did the binding signal turn out when “GCCTTTCCTTCCGATCTCTCTCCCTCTCTCTCTTCTTCTTCGGAGTCACCTAGTGCAG” was run?
**A.** 8100 fluorescence intensity (a.u.)

**Q.** With “TTCATGATAAGTACTCATTCCATATTTTAATTTTAATGTACGGAGTCACCTAGTGCAG” as the sequence, how does the binding signal read?
**A.** 8050 fluorescence intensity (a.u.)

**Q.** Which binding signal does the source give for “ATATTTTACGTGCGACTATTTTTTTTACCTTTTTTTTTTCCGGAGTCACCTAGTGCAG” here?
**A.** 10300 fluorescence intensity (a.u.)

**Q.** With “GTTTAACCGTTCATTTTATTTAAAATTTTTTTATAATTACCGGAGTCACCTAGTGCAG” as the sequence, how does the binding signal read?
**A.** 8100 fluorescence intensity (a.u.)

**Q.** Which binding signal does the source give for “GGTCATTCCTGTGTTTTGTAATCCTCTGTTTTATACTTATCGGAGTCACCTAGTGCAG” here?
**A.** 10600 fluorescence intensity (a.u.)

**Q.** With “ACACAATCCATGTCATTTAAAATTTCAAAGTTGAAATTTACGGAGTCACCTAGTGCAG” as the sequence, how does the binding signal read?
**A.** 8380 fluorescence intensity (a.u.)

**Q.** With “AGTTAGACCGGCACCACCTCGAGCATTATACATAGAATAACGGAGTCACCTAGTGCAG” as the sequence, how does the binding signal read?
**A.** 9480 fluorescence intensity (a.u.)

**Q.** For “GGTGTATGACTACACCTATGAAGGTGGGCTTTTAATATGACGGAGTCACCTAGTGCAG”, which binding signal is on record?
**A.** 8210 fluorescence intensity (a.u.)

**Q.** Which binding signal does the source give for “TTTGCAGGTCTTGCTTCTTTTGTTTGTATGTTAACATCTTCGGAGTCACCTAGTGCAG” here?
**A.** 8490 fluorescence intensity (a.u.)

**Q.** How did the binding signal turn out when “TGCTGGGTTGTTTAACCACTTTCTTCATCAATCTGTCTCTCGGAGTCACCTAGTGCAG” was run?
**A.** 8840 fluorescence intensity (a.u.)

**Q.** With “GAGTGTGATCTTCCACATTTGTTTGTTAGTGCATTAACCCCGGAGTCACCTAGTGCAG” as the sequence, how does the binding signal read?
**A.** 8130 fluorescence intensity (a.u.)

**Q.** How did the binding signal turn out when “CTTGCTACCTCTCGCGTCTCCGTCTCTGCGTTGCATTGCACGGAGTCACCTAGTGCAG” was run?
**A.** 8800 fluorescence intensity (a.u.)

**Q.** Which binding signal does the source give for “CTACAAGAGATCCATGTTAGCATATTTTTCTACTTGAAAGCGGAGTCACCTAGTGCAG” here?
**A.** 8460 fluorescence intensity (a.u.)

**Q.** For “CTTCTGCCAACGGAGGTGTGTCGTGTTCTCTCGGCCGTTGCGGAGTCACCTAGTGCAG”, which binding signal is on record?
**A.** 8260 fluorescence intensity (a.u.)

**Q.** How did the binding signal turn out when “CTCCTCCGCAACCGCCTTACGCCACCGCCTCTCGCCGCCTCGGAGTCACCTAGTGCAG” was run?
**A.** 10600 fluorescence intensity (a.u.)

**Q.** For “AAACTGTTATGCATGTCCTATCTTTGTATCCTTCAATTCACGGAGTCACCTAGTGCAG”, which binding signal is on record?
**A.** 11000 fluorescence intensity (a.u.)

**Q.** With “TTCCTTTTATTTTTCACTGCGACTGGCTGTCGAGAGCGAGCGGAGTCACCTAGTGCAG” as the sequence, how does the binding signal read?
**A.** 8730 fluorescence intensity (a.u.)

**Q.** Which binding signal does the source give for “TTGCAAGTTCATTTCTACATGAGCTTTTGACCAGGCCTCTCGGAGTCACCTAGTGCAG” here?
**A.** 9130 fluorescence intensity (a.u.)

**Q.** “CGTGCGCGCTGGAGGAGGTGGAGGTGGAGGTGGTGGTGTCCGGAGTCACCTAGTGCAG” was tested. Which binding signal did it give?
**A.** 10100 fluorescence intensity (a.u.)

**Q.** With “TTTCCTTTTTCCTCCCTGCCGCCGCACAAAGCGCTCGAGCCGGAGTCACCTAGTGCAG” as the sequence, how does the binding signal read?
**A.** 8850 fluorescence intensity (a.u.)

**Q.** For “TAACAACAAGGAATTTATCATGTATTACTGCGACCATTACCGGAGTCACCTAGTGCAG”, which binding signal is on record?
**A.** 8360 fluorescence intensity (a.u.)

**Q.** “TGCAAGTTTAGGGATCGGGATGACACAGTTGAATAAGTTTCGGAGTCACCTAGTGCAG” was tested. Which binding signal did it give?
**A.** 10000 fluorescence intensity (a.u.)

**Q.** How did the binding signal turn out when “GGCAGCTGGCTCAAGAGCTCCGGGCGGGTCAAGGTCTCCTCGGAGTCACCTAGTGCAG” was run?
**A.** 8270 fluorescence intensity (a.u.)

**Q.** Which binding signal does the source give for “AATGTGCTTTATGTTTGTCTGTATATCTTCAAAGGTGACACGGAGTCACCTAGTGCAG” here?
**A.** 11600 fluorescence intensity (a.u.)

**Q.** “GTCCATTTCAAATATACTCGCCTGTGTTCCCGTGCGTTGACGGAGTCACCTAGTGCAG” was tested. Which binding signal did it give?
**A.** 11100 fluorescence intensity (a.u.)

**Q.** How did the binding signal turn out when “AATAATGATATCGTTTCCGACCATTTCTGATAGTTTTCATCGGAGTCACCTAGTGCAG” was run?
**A.** 10400 fluorescence intensity (a.u.)

**Q.** How did the binding signal turn out when “GATTGATGTCATTTTCAACCATACCATTTTTTTAAAGTTTCGGAGTCACCTAGTGCAG” was run?
**A.** 8220 fluorescence intensity (a.u.)

**Q.** With “TTCGTCTTCGCCACCGTCTCTGTGCGGTATAGCTCTCTCTCGGAGTCACCTAGTGCAG” as the sequence, how does the binding signal read?
**A.** 8620 fluorescence intensity (a.u.)

**Q.** How did the binding signal turn out when “GACTAGCTCAAATGTGTCTCAAACAGTCGTTCCCGGAACACGGAGTCACCTAGTGCAG” was run?
**A.** 9140 fluorescence intensity (a.u.)

**Q.** “CCGCCGCCCGCCATCGCCATCCACCGCCGCCGCCGCGCCGCGGAGTCACCTAGTGCAG” was tested. Which binding signal did it give?
**A.** 11400 fluorescence intensity (a.u.)

**Q.** With “TCTCATATATGGCCTTGTTTGGCATAGGTTTGGATCCAAGCGGAGTCACCTAGTGCAG” as the sequence, how does the binding signal read?
**A.** 8290 fluorescence intensity (a.u.)

**Q.** How did the binding signal turn out when “TGGGTTGGGTTTGTTCTGGCTCGCACACAGCTCAGCAGCTCGGAGTCACCTAGTGCAG” was run?
**A.** 13500 fluorescence intensity (a.u.)

**Q.** “GCATCTTGATCTTCTTCTTCTTCTTATTATTATTATTATTCGGAGTCACCTAGTGCAG” was tested. Which binding signal did it give?
**A.** 11300 fluorescence intensity (a.u.)

**Q.** For “TCATCCCCAAGACCTCAGCCAGGCACGCCACGCACCCACCCGGAGTCACCTAGTGCAG”, which binding signal is on record?
**A.** 9940 fluorescence intensity (a.u.)

**Q.** How did the binding signal turn out when “GCTTTTCTATTCACCAAACTCCCAGCTTGCCGGCAACGTCCGGAGTCACCTAGTGCAG” was run?
**A.** 10000 fluorescence intensity (a.u.)

**Q.** “TTTCCGGTTTTTCCAATATTTTTCGATACCGTTTTCATTTCGGAGTCACCTAGTGCAG” was tested. Which binding signal did it give?
**A.** 12800 fluorescence intensity (a.u.)

**Q.** For “TGATTTGTGGATTTGTGGATGGGCATGTATTGTGGATTATCGGAGTCACCTAGTGCAG”, which binding signal is on record?
**A.** 10900 fluorescence intensity (a.u.)

**Q.** “ACCTTACCTGCAGTGCTGCTTTCTCAAATCTTGCGACACCCGGAGTCACCTAGTGCAG” was tested. Which binding signal did it give?
**A.** 9070 fluorescence intensity (a.u.)

**Q.** With “ACGATGGTGATGGGAGTAAATCTGTTATTCTACTTGTGCTCGGAGTCACCTAGTGCAG” as the sequence, how does the binding signal read?
**A.** 9080 fluorescence intensity (a.u.)

**Q.** Which binding signal does the source give for “TTTTTATCTTAGTACTCCCTCCGTGTCTTTTTTATCTAAACGGAGTCACCTAGTGCAG” here?
**A.** 11500 fluorescence intensity (a.u.)

**Q.** “TTTGAAGTCGCTTTTTCATCTGACACATACGGTTCGCTTCCGGAGTCACCTAGTGCAG” was tested. Which binding signal did it give?
**A.** 8480 fluorescence intensity (a.u.)
